Laboratory results reported in PubChem BioAssay (NCATS).
Inconclusive means that the source gave no clear call. Such entries were picked first, then a sample of the others. For some of these results: Where the call is inconclusive, the potency comes from a doubtful curve fit. Active and inactive are the calls of the source. Calls follow the shape of the dose curve; as a rule, active = well fitted curve in the direction sought with a large enough effect; inconclusive = small, poorly fitted or top-dose-only effect, or another doubt; inactive = no such curve, though single readings can be large; an effect the other way counts as inactive or inconclusive. Bridge positions count the residues as written; N and C are the ends. Square brackets hold non-standard residues; d marks the D form. Peptide text beside a SMILES is read from it. * marks the point of attachment. ξ: configuration not given here. Octanoyl(6-Me) = CCC(C)CCCCC(=O)*; ξThr(3R) = C[C@@H](O)C(N)C(=O)O; dDab = NCC[C@@H](N)C(=O)O; Dab = NCC[C@H](N)C(=O)O

Experiments:
[1] = Quantitative High-Throughput drug screen in 47 multiple myeloma cell lines against the NCATS MIPE library collection: JIM1_ECACC cell viability assay (AID 1918964; also: potency is read from the fitted curve at half-maximal effect); settings: JIM1 myeloma viability, CellTiter-Glo ATP luminescence, 48 h; viability (% of DMSO): at 45.8 µM (top of the series)
Outline: (§1)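 Inhibition of cell viability is measured here. Each line was plated at 500 cells per well, treated with MIPE 4.0 drugs, kept 48 hours at 37C, then assayed for ATP content by CellTiter-Glo luminescence.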

[2] = Quantitative High-Throughput drug screen in 47 multiple myeloma cell lines against the NCATS MIPE library collection: INA6_PLB cell viability assay (AID 1918965; also: nearly all actives have a fitted effect of over 55% in size; also: potency is read from the fitted curve at half-maximal effect); settings: INA6 myeloma viability, CellTiter-Glo ATP luminescence, 48 h; viability (% of control): at 45.8 µM (top of the series)
Outline: (§2)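 Myeloma cell lines, 500 cells per well, exposed to MIPE 4.0 library compounds for 48 h at 37C, 5% CO2. Viability from ATP by CellTiter-Glo luminescence; normalised to DMSO (100%) and media-only (0%) wells.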

[3] = Quantitative High-Throughput drug screen in 47 multiple myeloma cell lines against the NCATS MIPE library collection: JJN3_DSMZ cell viability assay (AID 1918966; also: nearly all actives have a fitted effect of over 50% in size; also: potency is read from the fitted curve at half-maximal effect); settings: JJN3 myeloma cells viability, CellTiter-Glo ATP, 48 h; viability, % of DMSO: at 45.8 µM (top of the series)
Outline: as §1

[4] = Quantitative High-Throughput drug screen in 47 multiple myeloma cell lines against the NCATS MIPE library collection: KMS12BM_JCRB cell viability assay (AID 1918971); also: nearly all actives have a fitted effect of over 35% in size; also: potency is read from the fitted curve at half-maximal effect
Outline: (§3)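 Viability readout: CellTiter-Glo luminescence following 5 min room-temperature incubation with reagent. Prior exposure: 48 h, 37C, humidified 5% CO2, 500 cells per well.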

[5] = Quantitative High-Throughput drug screen in 47 multiple myeloma cell lines against the NCATS MIPE library collection: KMS20_JCRB cell viability assay (AID 1918973); settings: CellTiter-Glo ATP, 48 h; viability (% of DMSO): at 45.8 µM (top of the series); also: nearly all actives have a fitted effect of over 45% in size; also: potency is read from the fitted curve at half-maximal effect
Outline: as §1

[6] = Quantitative High-Throughput drug screen in 47 multiple myeloma cell lines against the NCATS MIPE library collection: KMS21BM_JCRB cell viability assay (AID 1918974); settings: ATP luminescence, 48 h; viability: at 45.8 µM (top of the series) unless noted; also: potency is read from the fitted curve at half-maximal effect
Outline: as §1

[7] = Quantitative High-Throughput drug screen in 47 multiple myeloma cell lines against the NCATS MIPE library collection: MOLP8_DSMZ cell viability assay (AID 1918977); settings: MOLP8 myeloma viability, CellTiter-Glo ATP luminescence, 48 h; viability (% of control): at 45.8 µM (top of the series); also: nearly all actives have a fitted effect of over 45% in size; also: potency is read from the fitted curve at half-maximal effect
Outline: (§4)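 500 cells/well per myeloma line exposed to pinned MIPE 4.0 compounds for 48 h at 37 °C, 5% CO2. Viability read as ATP by CellTiter-Glo luminescence, normalised to DMSO-only (100%) and media-only (0%) wells.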

[8] = Quantitative High-Throughput drug screen in 47 multiple myeloma cell lines against the NCATS MIPE library collection: MM1S_ATCC cell viability assay (AID 1918980); also: nearly all actives have a fitted effect of over 45% in size; also: potency is read from the fitted curve at half-maximal effect
Outline: as §4

[9] = Quantitative High-Throughput drug screen in 47 multiple myeloma cell lines against the NCATS MIPE library collection: KMS26_JCRB cell viability assay (AID 1918975); settings: KMS26 myeloma cells viability, CellTiter-Glo ATP, 48 h; viability (% of DMSO): at 45.8 µM (top of the series); also: nearly all actives have a fitted effect of over 45% in size; also: potency is read from the fitted curve at half-maximal effect
Outline: as §3

[10] = Quantitative High-Throughput drug screen in 47 multiple myeloma cell lines against the NCATS MIPE library collection: MMM1_PLB cell viability assay (AID 1918976); also: nearly all actives have a fitted effect of over 35% in size; also: potency is read from the fitted curve at half-maximal effect
Outline: as §4

[11] = Quantitative High-Throughput drug screen in 47 multiple myeloma cell lines against the NCATS MIPE library collection: OCIMY1_PLB cell viability assay (AID 1918979); also: nearly all actives have a fitted effect of over 35% in size; also: potency is read from the fitted curve at half-maximal effect
Outline: as §4

[12] = Quantitative High-Throughput drug screen in 47 multiple myeloma cell lines against the NCATS MIPE library collection: LP1_DSMZ cell viability assay (AID 1918982); also: nearly all actives have a fitted effect of over 35% in size; also: potency is read from the fitted curve at half-maximal effect
Outline: as §4

[13] = Quantitative High-Throughput drug screen in 47 multiple myeloma cell lines against the NCATS MIPE library collection: KMS28PE_JCRB cell viability assay (AID 1918983); also: nearly all actives have a fitted effect of over 35% in size; also: potency is read from the fitted curve at half-maximal effect
Outline: as §4

[14] = Quantitative High-Throughput drug screen in 47 multiple myeloma cell lines against the NCATS MIPE library collection: H1112_PLB cell viability assay (AID 1918967; also: nearly all actives have a fitted effect of over 30% in size; also: potency is read from the fitted curve at half-maximal effect); settings: H1112 myeloma cells viability, ATP luminescence, 48 h; viability: at 45.8 µM (top of the series)
Outline: as §1

[15] = Quantitative High-Throughput drug screen in 47 multiple myeloma cell lines against the NCATS MIPE library collection: Karpas25_ECACC cell viability assay (AID 1918968); settings: Karpas25 myeloma viability, CellTiter-Glo ATP, 48 h; viability (% of control): at 45.8 µM (top of the series)
Outline: as §1

[16] = Quantitative High-Throughput drug screen in 47 multiple myeloma cell lines against the NCATS MIPE library collection: KMS27_JCRB cell viability assay (AID 1918970); settings: KMS27 myeloma cells, CellTiter-Glo ATP viability, 48 h; viability (% of DMSO): at 45.8 µM (top of the series); also: nearly all actives have a fitted effect of over 30% in size; also: potency is read from the fitted curve at half-maximal effect
Outline: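 KMS27_JCRB myeloma cells, 500 per well, exposed 48 h at 37 C, 5% CO2 to MIPE 4.0 compounds. Viability from ATP by CellTiter-Glo luminescence, normalized to DMSO (100%) and medium-only (0%) wells.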

[17] = Quantitative High-Throughput drug screen in 47 multiple myeloma cell lines against the NCATS MIPE library collection: KMS12PE_JCRB cell viability assay (AID 1918972); settings: KMS12PE myeloma viability, CellTiter-Glo ATP, 48 h; viability: at 45.8 µM (top of the series); also: nearly all actives have a fitted effect of over 30% in size; also: potency is read from the fitted curve at half-maximal effect
Outline: as §2

[18] = Quantitative High-Throughput drug screen in 47 multiple myeloma cell lines against the NCATS MIPE library collection: MM1R_ATCC cell viability assay (AID 1918981); also: nearly all actives have a fitted effect of over 35% in size; also: potency is read from the fitted curve at half-maximal effect
Outline: as §4

[19] = Quantitative High-Throughput drug screen in 47 multiple myeloma cell lines against the NCATS MIPE library collection: NCIH929_DSMZ cell viability assay (AID 1918978); also: nearly all actives have a fitted effect of over 35% in size
Outline: as §4

CC(C)Nc1cc(C(F)(F)F)cc2nc(NC(=O)c3cccnc3)nn12
inactive: Potency [1] | Potency [7]
inconclusive: Potency [2] 0.0264 µM [rising, full curve, poor fit] | Potency [3] 2.09 µM [cytotoxic, full curve, poor fit] | Potency [4] 9.35 µM [cytotoxic, partial curve, poor fit] | Potency [5] 2.64 µM [cytotoxic, partial curve, poor fit] | Potency [6] 37.2 µM [rising, partial curve] | Potency [8] 3.72 µM [cytotoxic, full curve, poor fit]

CCC[C@@H](NC(=O)[C@@H]1[C@H]2CCC[C@@H]2CN1C(=O)[C@@H](NC(=O)[C@@H](NC(=O)c1cnccn1)C1CCCCC1)C(C)(C)C)C(=O)C(=O)NC1CC1
inconclusive: Potency [1] 16.6 µM [cytotoxic, partial curve] | Potency [2] 18.7 µM [cytotoxic, partial curve, poor fit] | Potency [3] 18.7 µM [cytotoxic, partial curve, poor fit] | Potency [4] 13.2 µM [cytotoxic, partial curve] | Potency [5] 37.2 µM [cytotoxic, single point] | Potency [6] 18.7 µM [cytotoxic, partial curve, poor fit] | Potency [9] 33.2 µM [cytotoxic, single point] | Potency [10] 16.6 µM [cytotoxic, partial curve, poor fit] | Potency [7] 16.6 µM [cytotoxic, partial curve, poor fit] | Potency [11] 26.4 µM [cytotoxic, single point] | Potency [8] 14.8 µM [cytotoxic, partial curve, poor fit] | Potency [12] 33.2 µM [cytotoxic, partial curve, poor fit]
active: Potency [13] 16.6 µM

CNC(=O)c1ccc(-c2cnc3ncc(Cc4ccc5ncccc5c4)n3n2)cc1F
inactive: Potency [9] | Potency [8] | Potency [12]
inconclusive: Potency [1] 33.2 µM [cytotoxic, single point] | Potency [2] 10.5 µM [cytotoxic, partial curve, poor fit] | Potency [14] 6.62 µM [cytotoxic, partial curve, poor fit] | Potency [15] 9.35 µM [cytotoxic, single point] | Potency [16] 2.96 µM [cytotoxic, full curve, poor fit] | Potency [4] 9.35 µM [cytotoxic, full curve, poor fit] | Potency [17] 5.26 µM [cytotoxic, partial curve, poor fit] | Potency [5] 0.0026 µM [rising, full curve, poor fit] | Potency [10] 0.0093 µM [rising, full curve, poor fit] | Potency [18] 23.5 µM [cytotoxic, single point]

Cc1ccc(C(=O)N(CCCN)[C@@H](c2oc3cc(Cl)ccc3c(=O)c2Cc2ccccc2)C(C)C)cc1
active: Potency [9] 26.4 µM | Potency [10] 23.5 µM
inconclusive: viability (% of DMSO) [1] 4.77% [cytotoxic] | Potency [2] 9.35 µM [cytotoxic, full curve] | Potency [14] 33.2 µM [cytotoxic, single point] | Potency [15] 10.5 µM [cytotoxic, full curve] | Potency [4] 26.4 µM [cytotoxic, single point] | Potency [17] 0.0013 µM [cytotoxic, full curve, poor fit] | Potency [5] 4.69 µM [cytotoxic, full curve, poor fit] | Potency [7] 33.2 µM [cytotoxic, single point] | Potency [11] 0.0013 µM [cytotoxic, full curve, poor fit] | Potency [8] 37.2 µM [cytotoxic, single point] | Potency [18] 26.4 µM [cytotoxic, single point] | Potency [12] 37.2 µM [cytotoxic, single point] | Potency [13] 33.2 µM [cytotoxic, single point]

Cc1cccc(Nc2ccncc2S(=O)(=O)NC(=O)NC(C)C)c1
active: Potency [3] 20.9 µM | Potency [10] 20.9 µM
inactive: Potency [1] | Potency [16] | Potency [19] | Potency [11] | Potency [8]
inconclusive: Potency [2] 2.96 µM [cytotoxic, full curve, poor fit] | Potency [6] 37.2 µM [rising, partial curve, poor fit] | Potency [9] 29.6 µM [cytotoxic, single point] | Potency [7] 16.6 µM [cytotoxic, partial curve, poor fit] | Potency [18] 0.0074 µM [cytotoxic, full curve, poor fit]

NC[C@H]1O[C@H](O[C@@H]2[C@@H](O)[C@@H](O[C@H]3O[C@H](CO)[C@@H](O)[C@H](N)[C@@H]3O)[C@H](N)C[C@@H]2N)[C@H](O)[C@@H](O)[C@H]1O
inactive: Potency [14] | Potency [16] | Potency [4] | Potency [7] | Potency [18]
inconclusive: Potency [1] 0.0296 µM [cytotoxic, full curve, poor fit] | Potency [2] 0.001 µM | Potency [5] 0.0148 µM [rising, full curve] | Potency [6] 9.35 µM [rising, partial curve] | Potency [9] 0.0015 µM [rising, full curve, poor fit] | Potency [8] 16.6 µM [cytotoxic, partial curve, poor fit]

CC(C)OC(=O)C(C(=O)OC(C)C)=C1SC=CS1
inconclusive: Potency [2] 18.7 µM [cytotoxic, partial curve, poor fit] | Potency [16] 0.0015 µM [cytotoxic, full curve, poor fit] | Potency [5] 18.7 µM [cytotoxic, partial curve, poor fit] | Potency [10] 10.5 µM [cytotoxic, partial curve, poor fit] | Potency [7] 20.9 µM [cytotoxic, partial curve, poor fit] | Potency [8] 59 µM [cytotoxic, partial curve, poor fit] | Potency [18] 33.2 µM [cytotoxic, single point] | Potency [12] 20.9 µM [cytotoxic, partial curve, poor fit]
inactive: Potency [1] | Potency [3] | Potency [17] | Potency [11]
active: viability [6] 403%

CC[C@H]1OC(=O)[C@H](C)[C@@H](O[C@H]2C[C@@](C)(OC)[C@@H](O)[C@H](C)O2)[C@H](C)[C@@H](O[C@@H]2O[C@H](C)C[C@H](N(C)C)[C@@H]2O)[C@](C)(OC)C[C@@H](C)C(=O)[C@H](C)[C@@H](O)[C@]1(C)O
inactive: Potency [2] | Potency [5] | Potency [10] | Potency [18]
inconclusive: Potency [1] 0.0037 µM [rising, full curve, poor fit] | Potency [3] 1.48 µM [cytotoxic, partial curve, poor fit] | Potency [4] 10.5 µM [cytotoxic, partial curve, poor fit] | Potency [6] 29.6 µM [rising, partial curve] | Potency [7] 26.4 µM [cytotoxic, single point] | Potency [8] 46.9 µM [cytotoxic, single point]

CC(C)NCC(O)c1ccc(NS(C)(=O)=O)cc1 (configuration not stated)
inactive: Potency [14] | Potency [4] | Potency [5] | Potency [18]
active: Potency [10] 2.09 µM
inconclusive: Potency [1] 2.64 µM [cytotoxic, partial curve, poor fit] | Potency [2] 0.059 µM [rising, full curve, poor fit] | Potency [15] 9.35 µM [cytotoxic, partial curve, poor fit] | Potency [9] 0.0418 µM [cytotoxic, full curve, poor fit] | Potency [7] 0.0012 µM [cytotoxic, full curve, poor fit]

C[C@@H](NCCCc1cccc(C(F)(F)F)c1)c1cccc2ccccc12
inactive: Potency [4] | Potency [5] | Potency [9] | Potency [7] | Potency [11]
inconclusive: Potency [1] 0.0013 µM [cytotoxic, full curve, poor fit] | Potency [2] 2.64 µM [rising, partial curve] | Potency [3] 0.148 µM [rising, full curve, poor fit] | Potency [6] 16.6 µM [cytotoxic, partial curve, poor fit] | Potency [10] 2.35 µM [cytotoxic, partial curve, poor fit] | Potency [8] 0.264 µM [rising, full curve]
active: Potency [17] 18.7 µM

CCC(C)CCCCC(=O)N[C@@H](CCN)C(=O)NC(C(=O)N[C@H](CCN)C(=O)N[C@@H]1CCNC(=O)C([C@@H](C)O)NC(=O)[C@@H](CCN)NC(=O)[C@@H](CCN)NC(=O)[C@@H](CC(C)C)NC(=O)[C@H](Cc2ccccc2)NC(=O)[C@H](CCN)NC1=O)[C@@H](C)O (stereo partly drawn) ({Octanoyl(6-Me)}-[Dab][ξThr(3R)][dDab][dDab][Dab]F[dL][dDab][dDab][ξThr(3R)]; lactam 4-C)
inactive: Potency [1] | Potency [3] | Potency [11] | Potency [18] | Potency [13]
inconclusive: Potency [2] 4.69 µM [rising, partial curve, poor fit] | Potency [4] 0.0037 µM [rising, full curve] | Potency [9] 0.0026 µM [cytotoxic, full curve, poor fit] | Potency [10] 0.0148 µM [rising, full curve, poor fit] | Potency [8] 0.0059 µM [rising, full curve, poor fit]
